# Test results published in the supplement of paper PMC7238544.
# Where a name gives a salt, the structure may show the parent alone. ± gives the standard deviation of the averaged measurements. Some of the results follow. The data scatter; read single values as rough.
# Legend:
# [1] = tested on: hAMSC donor 1; experiment: Hoechst total cell count ratio vs vehicle control; higher = more cells (less toxicity)
# [2] = tested on: hAMSC donor 2; experiment: as above
# [3] = tested on: hAMSC donor 1; experiment: transgenic luciferase activity (RLU/mg protein) fold change vs vehicle control (ratio); higher = more transgene expression
# [4] = tested on: hAMSC donor 2; experiment: as above
# [5] = tested on: hAMSC donor 1; experiment: transfection efficiency (EGFP+ cells / Hoechst count) fold change vs vehicle control (ratio); hAMSC are human adipose-derived mesenchymal stem cells given an EGFP-luciferase plasmid by lipofection; higher = enhanced transfection
# [6] = tested on: hAMSC donor 2; experiment: as above
# [7] = priming compound concentration 0.2 µM
# [8] = priming compound concentration 1.7 µM
# [9] = priming compound concentration 13 µM
Structure (SMILES),"Hoechst total cell count ratio [1, 7]","Hoechst total cell count ratio [1, 8]","Hoechst total cell count ratio [1, 9]","Hoechst total cell count ratio [2, 7]","Hoechst total cell count ratio [2, 8]","Hoechst total cell count ratio [2, 9]","transgenic luciferase activity [3, 8]","transgenic luciferase activity [4, 8]","transgenic luciferase activity [4, 9]","transfection efficiency [5, 7]","transfection efficiency [5, 8]","transfection efficiency [5, 9]","transfection efficiency [6, 7]","transfection efficiency [6, 8]","transfection efficiency [6, 9]","transgenic luciferase activity [3, 9]","transgenic luciferase activity [4, 7]","transgenic luciferase activity [3, 7]"
Cc1sc(N)c(C(=O)c2cccc(C(F)(F)F)c2)c1C,1.16 ± 0.12,1.43 ± 0.034,1.49 ± 0.085,0.888 ± 0.1,1.4 ± 0.27,1.28 ± 0.11,0.841 ± 0.64,0.629 ± 0.14,0.67 ± 0.077,0.958 ± 0.21,1.08 ± 0.16,0.9 ± 0.14,0.982 ± 0.14,1.1 ± 0.088,0.844 ± 0.034,–,–,–
CCOC(=O)[C@H](CCc1ccccc1)N[C@@H](C)C(=O)N1CCC[C@H]1C(=O)O [Enalapril maleate],1.1 ± 0.079,1.83 ± 0.39,1.51 ± 0.24,1.15 ± 0.021,1.14 ± 0.069,1.29 ± 0.26,–,–,0.634 ± 0.11,1.07 ± 0.087,0.548 ± 0.13,0.573 ± 0.032,1.15 ± 0.068,0.841 ± 0.064,0.984 ± 0.2,0.703 ± 0.34,0.561 ± 0.063,–
Cc1cnc(C(=O)NCCc2ccc(S(=O)(=O)NC(=O)NC3CCCCC3)cc2)cn1 [Glipizide],1.2 ± 0.11,1.12 ± 0.035,1.02 ± 0.17,0.962 ± 0.19,1.49 ± 0.043,1.37 ± 0.075,0.915 ± 0.23,1.15 ± 0.29,–,0.9 ± 0.058,0.914 ± 0.12,0.908 ± 0.47,1.13 ± 0.28,0.894 ± 0.069,0.793 ± 0.052,–,1.05 ± 0.37,–
CC(C(=O)O)c1cccc(C(=O)c2ccccc2)c1 (stereo not given) [Ketoprofen],–,–,–,–,–,–,–,–,0.391 ± 0.12,0.748 ± 0.22,0.833 ± 0.17,1.2 ± 0.41,1.57 ± 0.12,0.671 ± 0.056,0.942 ± 0.17,1.03 ± 0.067,0.699 ± 0.13,–
NC(=O)N1c2ccccc2C=Cc2ccccc21 [Carbamazepine],1.22 ± 0.13,1.38 ± 0.17,1.27 ± 0.14,1.15 ± 0.082,1.28 ± 0.055,1.29 ± 0.077,–,–,0.615 ± 0.15,0.888 ± 0.19,1.2 ± 0.53,0.876 ± 0.19,1.21 ± 0.13,0.771 ± 0.14,0.857 ± 0.039,0.959 ± 0.19,0.809 ± 0.24,–
O=C(NCC1CCCCN1)c1cc(OCC(F)(F)F)ccc1OCC(F)(F)F (stereo not given) [Flecainide hydrochloride],1.22 ± 0.16,1.17 ± 0.17,1.59 ± 0.17,1.3 ± 0.11,1.49 ± 0.092,1.38 ± 0.12,0.905 ± 0.19,0.789 ± 0.3,0.478 ± 0.073,2.28 ± 2.2,1.26 ± 0.1,0.815 ± 0.18,0.964 ± 0.17,0.953 ± 0.019,0.861 ± 0.034,–,–,–
CN(C)CCCN1c2ccccc2CCc2ccc(Cl)cc21 [Clomipramine hydrochloride],1.3 ± 0.14,1.82 ± 0.13,1.44 ± 0.17,1.07 ± 0.047,1.21 ± 0.018,1.77 ± 0.25,–,–,0.289 ± 0.06,1.16 ± 0.25,0.685 ± 0.18,0.516 ± 0.19,1.05 ± 0.11,0.8 ± 0.068,0.564 ± 0.11,0.555 ± 0.22,0.618 ± 0.24,–
CCN(CC)CCCC(C)Nc1c2ccc(Cl)cc2nc2ccc(OC)cc12 (stereo not given) [Quinacrine hydrochloride hydrate],1.3 ± 0.096,1.16 ± 0.06,0.634 ± 0.035,0.975 ± 0.072,0.982 ± 0.037,0.292 ± 0.047,–,–,–,–,–,–,–,–,–,–,1.04 ± 0.065,1.44 ± 0.47
CC(C)(C)NCC(O)c1cc(O)cc(O)c1 (stereo not given) [Terbutaline sulfate],1.05 ± 0.045,0.747 ± 0.17,1.11 ± 0.11,1.12 ± 0.066,1.21 ± 0.15,1.3 ± 0.087,–,–,0.351 ± 0.094,0.969 ± 0.32,1.14 ± 0.3,0.713 ± 0.14,1.14 ± 0.099,0.85 ± 0.2,0.993 ± 0.069,1.07 ± 0.08,0.631 ± 0.072,–
CNS(=O)(=O)Cc1ccc2[nH]cc(CCN(C)C)c2c1 [Sumatriptan succinate],1.41 ± 0.043,1.21 ± 0.25,1.39 ± 0.097,1.33 ± 0.072,1.2 ± 0.1,1.22 ± 0.1,1.37 ± 0.24,0.63 ± 0.48,0.669 ± 0.15,0.969 ± 0.15,1.15 ± 0.36,1.35 ± 0.57,0.851 ± 0.23,0.87 ± 0.11,1.03 ± 0.047,–,–,–
COc1ccc(CC2c3cc(OC)c(OC)cc3CC[N+]2(C)CCC(=O)OCCCCCOC(=O)CC[N+]2(C)CCc3cc(OC)c(OC)cc3C2Cc2ccc(OC)c(OC)c2)cc1OC (stereo not given) [Atracurium besylate],1.11 ± 0.14,1.24 ± 0.13,0.881 ± 0.17,1.02 ± 0.38,0.899 ± 0.094,0.589 ± 0.081,–,0.391 ± 0.077,–,0.878 ± 0.24,0.505 ± 0.15,1.49 ± 0.56,1.33 ± 0.2,1.07 ± 0.079,1.72 ± 0.18,–,–,0.475 ± 0.2
C=CCc1ccc(O)c(-c2ccc(O)c(CC=C)c2)c1 [Honokiol],1.21 ± 0.12,1.08 ± 0.088,0.804 ± 0.082,0.738 ± 0.21,0.895 ± 0.058,0.508 ± 0.14,–,–,–,1.02 ± 0.23,1.23 ± 0.21,0.994 ± 0.23,1.52 ± 0.27,1.63 ± 0.36,1.31 ± 0.18,0.715 ± 0.64,–,–
O=S(=O)(O)CCS [Mesna],1.21 ± 0.052,1.15 ± 0.094,1.24 ± 0.16,0.987 ± 0.3,1.35 ± 0.063,1.28 ± 0.066,–,–,–,0.55 ± 0.23,1.36 ± 0.64,1.83 ± 0.45,1.42 ± 0.26,0.754 ± 0.08,1.03 ± 0.1,–,0.823 ± 0.018,1.09 ± 0.65
CC(=O)OCC(CCn1cnc2cnc(N)nc21)COC(C)=O [Famciclovir],1.12 ± 0.1,1.14 ± 0.22,1.11 ± 0.27,1.36 ± 0.29,1.05 ± 0.015,1.04 ± 0.37,–,–,–,0.806 ± 0.15,1.25 ± 0.35,1.18 ± 0.66,1.06 ± 0.091,1.12 ± 0.2,0.935 ± 0.093,0.812 ± 0.1,–,–
NCCc1ccc(O)c(O)c1 [Dopamine hydrochloride],1.08 ± 0.035,1.13 ± 0.085,1.19 ± 0.12,0.943 ± 0.25,0.944 ± 0.11,1.09 ± 0.061,–,–,–,0.43 ± 0.14,1.5 ± 1.2,1.04 ± 0.24,1.35 ± 0.3,1.02 ± 0.039,0.809 ± 0.11,–,0.774 ± 0.43,1.77 ± 0.53

# No new results follow: entries from further up.
Structure (SMILES),"Hoechst total cell count ratio [1, 7]","Hoechst total cell count ratio [1, 8]","Hoechst total cell count ratio [1, 9]","Hoechst total cell count ratio [2, 7]","Hoechst total cell count ratio [2, 8]","Hoechst total cell count ratio [2, 9]","transgenic luciferase activity [3, 8]","transgenic luciferase activity [4, 8]","transgenic luciferase activity [4, 9]","transfection efficiency [5, 7]","transfection efficiency [5, 8]","transfection efficiency [5, 9]","transfection efficiency [6, 7]","transfection efficiency [6, 8]","transfection efficiency [6, 9]","transgenic luciferase activity [3, 9]","transgenic luciferase activity [4, 7]","transgenic luciferase activity [3, 7]"
CNS(=O)(=O)Cc1ccc2[nH]cc(CCN(C)C)c2c1 [Sumatriptan succinate],1.41 ± 0.043,1.21 ± 0.25,1.39 ± 0.097,1.33 ± 0.072,1.2 ± 0.1,1.22 ± 0.1,1.37 ± 0.24,0.63 ± 0.48,0.669 ± 0.15,0.969 ± 0.15,1.15 ± 0.36,1.35 ± 0.57,0.851 ± 0.23,0.87 ± 0.11,1.03 ± 0.047,–,–,–
COc1ccc(CC2c3cc(OC)c(OC)cc3CC[N+]2(C)CCC(=O)OCCCCCOC(=O)CC[N+]2(C)CCc3cc(OC)c(OC)cc3C2Cc2ccc(OC)c(OC)c2)cc1OC (stereo not given) [Atracurium besylate],1.11 ± 0.14,1.24 ± 0.13,0.881 ± 0.17,1.02 ± 0.38,0.899 ± 0.094,0.589 ± 0.081,–,0.391 ± 0.077,–,0.878 ± 0.24,0.505 ± 0.15,1.49 ± 0.56,1.33 ± 0.2,1.07 ± 0.079,1.72 ± 0.18,–,–,0.475 ± 0.2
C=CCc1ccc(O)c(-c2ccc(O)c(CC=C)c2)c1 [Honokiol],1.21 ± 0.12,1.08 ± 0.088,0.804 ± 0.082,0.738 ± 0.21,0.895 ± 0.058,0.508 ± 0.14,–,–,–,1.02 ± 0.23,1.23 ± 0.21,0.994 ± 0.23,1.52 ± 0.27,1.63 ± 0.36,1.31 ± 0.18,0.715 ± 0.64,–,–
